Data as given in PubChem BioAssay AID652243 (Drosophila RNAi Screening Center, 2013)

Assay: 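Fly regulators of androgen-dependent reporter output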 (primary screen)
Cells: Drosophila S2R+ cells
Knock-down reagent: long dsRNA against Drosophila genes
Timing: 72 h (48 h, then 24 h hormone)
Challenge: synthetic androgen R1881 at 10 nM for 24 h
Measurement: 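Per-well raw luminescence of the androgen-driven firefly reporter and of the Renilla control, two replicates each, without normalisation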
Direction: firefly reporter light: higher = more light from androgen-responsive reporter; Renilla control light: higher = more constitutive control signal (cell number, transfection)
Active means: 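Across duplicate plates, a knock-down whose log firefly/Renilla ratio shifted a set fold down or up from the GFP/LacZ control mean was a hit; the downward cut appears as both 1.5 and 3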
Calls: active = hit: reporter lowered or raised; inactive = no hit
In all, the deposit lists about 24,000 reagents; shown is an unselected part of those with a known target gene and a result. Over the whole deposit, 246 (1%) are marked active. 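Plates not normalised; calls are printed but the firefly/Renilla ratio behind them is not deposited; fold cut for lowering reported inconsistently.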 Raw values are not corrected between plates. A plus sign joins genes that one reagent is predicted to hit. Not given: the amount of reagent.

CG13313 (GeneID 39022) [DRSC09984] → firefly reporter light, replicate 1 = 1.98e5; firefly reporter light, replicate 2 = 2.19e5; Renilla control light, replicate 1 = 1.88e6; Renilla control light, replicate 2 = 1.81e6; Call = inactive
CG13313 (GeneID 39022) [DRSC28463] → firefly reporter light, replicate 1 = 4.36e5; firefly reporter light, replicate 2 = 6.65e5; Renilla control light, replicate 1 = 1.27e6; Renilla control light, replicate 2 = 1.57e6; Call = inactive
CR33318 (GeneID 3771976) [DRSC22949] → firefly reporter light, replicate 1 = 5.13e5; firefly reporter light, replicate 2 = 7.84e5; Renilla control light, replicate 1 = 1.17e6; Renilla control light, replicate 2 = 2.08e6; Call = inactive
CG18536 (GeneID 37093) [DRSC06763] → firefly reporter light, replicate 1 = 1.04e5; firefly reporter light, replicate 2 = 1.01e5; Renilla control light, replicate 1 = 1.70e6; Renilla control light, replicate 2 = 1.70e6; Call = inactive
CG10589 (GeneID 40313) [DRSC11629] → firefly reporter light, replicate 1 = 2.16e5; firefly reporter light, replicate 2 = 2.12e5; Renilla control light, replicate 1 = 2.10e6; Renilla control light, replicate 2 = 1.91e6; Call = inactive
Adh + Adhr [DRSC01862] → firefly reporter light, replicate 1 = 1.22e6; firefly reporter light, replicate 2 = 7.90e5; Renilla control light, replicate 1 = 1.22e6; Renilla control light, replicate 2 = 1.66e6; Call = inactive
Adh + Adhr [DRSC01863] → firefly reporter light, replicate 1 = 2.13e5; firefly reporter light, replicate 2 = 1.59e5; Renilla control light, replicate 1 = 2.06e6; Renilla control light, replicate 2 = 1.60e6; Call = inactive
CG2701 (GeneID 31261) [DRSC18590] → firefly reporter light, replicate 1 = 1.36e5; firefly reporter light, replicate 2 = 81483; Renilla control light, replicate 1 = 9.46e5; Renilla control light, replicate 2 = 5.72e5; Call = inactive
Sugb (GeneID 39314) [DRSC10815] → firefly reporter light, replicate 1 = 7.63e5; firefly reporter light, replicate 2 = 1.35e6; Renilla control light, replicate 1 = 7.36e5; Renilla control light, replicate 2 = 1.33e6; Call = inactive
CG13285 (GeneID 38623) [DRSC09960] → firefly reporter light, replicate 1 = 3.04e5; firefly reporter light, replicate 2 = 1.58e5; Renilla control light, replicate 1 = 2.08e6; Renilla control light, replicate 2 = 1.84e6; Call = inactive
CG2021 (GeneID 38229) [DRSC08546] → firefly reporter light, replicate 1 = 1.78e5; firefly reporter light, replicate 2 = 1.60e5; Renilla control light, replicate 1 = 1.42e6; Renilla control light, replicate 2 = 1.73e6; Call = inactive
CG2021 (GeneID 38229) [DRSC27282] → firefly reporter light, replicate 1 = 2.45e5; firefly reporter light, replicate 2 = 2.60e5; Renilla control light, replicate 1 = 5.23e5; Renilla control light, replicate 2 = 6.28e5; Call = inactive
CanA1 (GeneID 43670) [DRSC16600] → firefly reporter light, replicate 1 = 2.25e5; firefly reporter light, replicate 2 = 1.95e5; Renilla control light, replicate 1 = 1.79e6; Renilla control light, replicate 2 = 2.95e6; Call = inactive
CanA1 (GeneID 43670) [DRSC25868] → firefly reporter light, replicate 1 = 4.27e5; firefly reporter light, replicate 2 = 4.55e5; Renilla control light, replicate 1 = 9.37e5; Renilla control light, replicate 2 = 9.75e5; Call = inactive
CanA1 (GeneID 43670) [DRSC37014] → Call = inactive

2 consecutive entries from above:
CG2701 (GeneID 31261) [DRSC18590] → firefly reporter light, replicate 1 = 1.36e5; firefly reporter light, replicate 2 = 81483; Renilla control light, replicate 1 = 9.46e5; Renilla control light, replicate 2 = 5.72e5; Call = inactive
Sugb (GeneID 39314) [DRSC10815] → firefly reporter light, replicate 1 = 7.63e5; firefly reporter light, replicate 2 = 1.35e6; Renilla control light, replicate 1 = 7.36e5; Renilla control light, replicate 2 = 1.33e6; Call = inactive
